From PubChem BioAssay
“And” between values parts separate entries of the source, which are not always exact repeats. Identical values can stand only once. The shares of active, inactive and inconclusive entries below differ from those in the screen. For some assays here: Potencies of inconclusive entries are doubtful fits and often do not repeat. The source made the active and inactive calls. Unless noted, cut-off not given; nearly all actives show AC50 up to about 26 µM.

Sequences of proteins named here, by UniProt entry; tags and fusion partners are left off.
UniProt P08183, whole entry, looked up: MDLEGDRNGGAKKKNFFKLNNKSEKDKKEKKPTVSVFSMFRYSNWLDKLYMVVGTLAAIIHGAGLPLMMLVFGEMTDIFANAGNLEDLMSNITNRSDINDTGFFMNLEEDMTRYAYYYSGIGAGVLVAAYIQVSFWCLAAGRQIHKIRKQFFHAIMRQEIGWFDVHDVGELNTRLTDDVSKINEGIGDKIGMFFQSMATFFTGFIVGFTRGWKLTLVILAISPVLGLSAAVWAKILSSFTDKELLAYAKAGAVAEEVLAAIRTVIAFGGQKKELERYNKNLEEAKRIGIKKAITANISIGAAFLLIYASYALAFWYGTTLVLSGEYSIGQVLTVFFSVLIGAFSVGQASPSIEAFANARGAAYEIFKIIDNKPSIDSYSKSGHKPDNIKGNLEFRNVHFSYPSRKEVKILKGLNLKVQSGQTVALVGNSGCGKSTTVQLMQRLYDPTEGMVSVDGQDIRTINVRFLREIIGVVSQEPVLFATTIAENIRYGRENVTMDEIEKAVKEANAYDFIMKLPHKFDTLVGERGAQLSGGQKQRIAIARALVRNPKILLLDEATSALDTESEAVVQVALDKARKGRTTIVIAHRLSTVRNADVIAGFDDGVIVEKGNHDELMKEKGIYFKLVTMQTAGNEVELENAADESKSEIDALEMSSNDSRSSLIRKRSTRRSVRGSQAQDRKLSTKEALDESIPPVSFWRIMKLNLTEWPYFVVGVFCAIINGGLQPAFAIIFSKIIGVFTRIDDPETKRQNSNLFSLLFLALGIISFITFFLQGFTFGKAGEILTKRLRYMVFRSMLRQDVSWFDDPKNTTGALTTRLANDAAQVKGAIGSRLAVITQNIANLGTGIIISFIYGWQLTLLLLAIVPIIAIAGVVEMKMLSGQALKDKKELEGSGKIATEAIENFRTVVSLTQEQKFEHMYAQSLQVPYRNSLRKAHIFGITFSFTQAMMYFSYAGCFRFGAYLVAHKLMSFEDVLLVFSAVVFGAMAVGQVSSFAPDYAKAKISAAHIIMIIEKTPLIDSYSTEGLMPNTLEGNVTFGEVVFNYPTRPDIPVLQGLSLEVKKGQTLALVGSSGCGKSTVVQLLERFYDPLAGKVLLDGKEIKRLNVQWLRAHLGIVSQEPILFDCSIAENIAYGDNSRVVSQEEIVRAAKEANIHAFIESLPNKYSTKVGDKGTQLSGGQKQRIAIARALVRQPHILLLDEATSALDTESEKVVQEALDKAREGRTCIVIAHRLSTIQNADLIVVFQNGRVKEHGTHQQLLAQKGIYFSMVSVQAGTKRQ

Key:
[1] = growth inhibition of DIPG glioma cells, dose response, cell-based, SU-DIPG-XVII, MIPE5.0, CellTiter-Glo, qHTS (AID 1347060); conditions: SU-DIPG-XVII viability, CellTiter-Glo ATP luminescence;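 on AC50: cells exposed to compound for 48 hours before viability readout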
[2] = growth inhibition of DIPG glioma cells, dose response, cell-based, SU-DIPG-XIII, MIPE4.0, CellTiter-Glo, qHTS (AID 1347061; cut-off not given, nearly all actives have AC50 up to about 37 µM;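 further: cells exposed to compound for 48 hours before readout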); conditions: SU-DIPG-XIII viability, CellTiter-Glo ATP luminescence
[3] = growth inhibition of DIPG glioma cells, dose response, cell-based, SU-DIPG-IV, MIPE4.0, CellTiter-Glo, qHTS (AID 1347063; cut-off not given, nearly all actives have AC50 up to about 30 µM;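 further: compound exposure lasted 48 hours before the viability readout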); conditions: SU-DIPG-IV viability, CellTiter-Glo ATP luminescence
[4] = growth inhibition of DIPG glioma cells, dose response, cell-based, SU-DIPG-XIII, MIPE5.0, CellTiter-Glo, qHTS (AID 1347064; cut-off not given, nearly all actives have AC50 up to about 23 µM;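 on AC50: cells exposed to compound for 48 hours before the viability read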); conditions: SU-DIPG-XIII viability, CellTiter-Glo ATP luminescence
[5] = viability loss in pontine glioma line – cell-based, SU-DIPG-XXV, MIPE5.0, CellTiter-Glo, qHTS, dose response (AID 1347065); conditions: CellTiter-Glo ATP luminescence;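 further: cells exposed to compound for 48 hours before ATP readout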
[6] = SU-DIPG-VI glioma cell viability, MIPE4.0 library, CellTiter-Glo luminescence, qHTS (AID 1347066; cut-off not given, nearly all actives have AC50 up to about 30 µM;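 further: cells exposed to compound for 48 hours before readout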); conditions: CellTiter-Glo ATP luminescence
[7] = SU-DIPG-XXV glioma cell viability, MIPE5.0 library, qHTS (AID 1347068; cut-off not given, nearly all actives have IC50 up to about 30 µM;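 on IC50: cells exposed to compound for 48 hours before viability readout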)
[8] = JHH-DIPG-1 glioma cell viability, MIPE5.0 library, CellTiter-Glo luminescence, qHTS (AID 1347067); conditions: JHH-DIPG-1 glioma viability, CellTiter-Glo ATP luminescence;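 further: cells exposed to compound for 48 hours before readout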
[9] = inhibitors of polyQ aggregate elongation, biochemical, solid-phase synthetic aggregates, QA3 (AID 1585; call rule not given here); conditions: biotin-polyQ incorporation, at 100 µM, stronger effect = higher value
[10] = polyglutamine aggregation reduction, turbidity readout, qthio, single concentration 25 µM screen (AID 1588; call rule not given here); conditions: at 25 µM, stronger effect = lower value
[11] = protection of motor neurons from glutamate death, cell-based, TUNEL DNA degradation staining, MNGlu (AID 1594; call rule not given here); conditions: glutamate-induced death, at 1 µM, stronger effect = higher value
[12] = enhancers of SMN2 over SMN1 splicing, cell-based, SMN2/SMN1 luciferase reporters (AID 1598; call rule not given here); conditions: SMN2 vs SMN1 luciferase splicing reporter cells; at 10 µM; stronger effect = higher value
[13] = molecular target: ATP-dependent translocase ABCB1 (Homo sapiens) (UniProt P08183); test: MDR1 (ABCB1) efflux transporter inhibition, cell-based (AID 377; in the data active means fluorescence slope change above about 50%; inconclusive means mostly about 31% to 49%); conditions: MDR1-expressing cells, fluorescent substrate accumulation slope; stronger effect = higher value; concentration not given here

NS(=O)(=O)c1ccc(NC2=CC(=O)c3ccccc3C2=O)cc1
active: AC50 [4] 5.9 µM | AC50 [5] 11.8 µM | AC50 [6] 5.9 µM
inconclusive: AC50 [1] 3.72 µM [cytotoxic] | AC50 [2] 26.4 µM [cytotoxic] | AC50 [3] 0.833 µM [cytotoxic] | IC50 [7] 20.9 µM [cytotoxic]

CC(C)c1onc(-c2c(Cl)cccc2Cl)c1COc1ccc(/C=C/c2cccc(C(=O)O)c2)c(Cl)c1
inactive: outcome [2]
inconclusive: AC50 [1] 23.5 µM [cytotoxic] | AC50 [3] 33.2 µM [cytotoxic] | AC50 [4] 0.00263 µM [cytotoxic] | AC50 [5] 20.9 µM [cytotoxic] | AC50 [6] 23.5 µM [cytotoxic] | AC50 [8] 26.3 µM [cytotoxic] | IC50 [7] 20.9 µM [cytotoxic]

C=C1/C(=C/C=C2\CCCC3(C)[C@@H]([C@H](C)/C=C/C=C/C(O)(CC)CC)CC[C@@H]23)C[C@@H](O)C[C@@H]1O (some centres undefined)
active: AC50 [2] 18.7 µM | AC50 [3] 16.6 µM
inconclusive: AC50 [1] 26.3 µM [cytotoxic] | AC50 [4] 33.2 µM [cytotoxic] | AC50 [5] 33.2 µM [cytotoxic] | AC50 [6] 33.2 µM [cytotoxic] | AC50 [8] 33.2 µM [cytotoxic]
inactive: outcome [7]

COc1ccc(S(=O)(=O)Nc2cccnc2Nc2ccc(O)cc2)cc1
active: AC50 [1] 0.263 µM | AC50 [4] 0.468 µM | AC50 [8] 0.468 µM
inconclusive: AC50 [2] 7.43 µM [cytotoxic] | AC50 [3] 0.833 µM [cytotoxic] | AC50 [5] 0.661 µM [cytotoxic] | AC50 [6] 5.9 µM [cytotoxic]

CO[C@@H]1[C@@H](OC(N)=O)[C@@H](O)[C@H](Oc2ccc3c(O)c(NC(=O)c4ccc(O)c(CC=C(C)C)c4)c(=O)oc3c2C)OC1(C)C
inactive: outcome [1] | outcome [2] | outcome [3] | outcome [4] | outcome [5] | outcome [6]
inconclusive: inhibition [9] 27.5% | aggregation (% of control) [10] 108% | protection [11] -1% | SMN2/SMN1 luciferase ratio [12] 1.05 | AC50 [8] 13.2 µM [cytotoxic]

COc1cc(OC2CCN(C)CC2)ccc1Nc1ncc2c(n1)n(C1CCCC1)c(=O)n2C
active: AC50 [2] 16.6 µM | AC50 [4] 18.6 µM | AC50 [5] 13.2 µM | IC50 [7] 16.6 µM
inconclusive: AC50 [1] 20.9 µM [cytotoxic] | AC50 [3] 16.6 µM [cytotoxic] | AC50 [6] 26.4 µM [cytotoxic]

CC(=O)N[C@H]1[C@H](O[C@@H]2c3ccc(c(Cl)c3)Oc3cc4cc(c3O[C@@H]3O[C@H](CO)[C@@H](O)[C@H](O)[C@H]3NC(=O)CCCCCCCC(C)C)Oc3ccc(cc3Cl)C[C@H]3NC(=O)[C@H](N)c5ccc(O)c(c5)Oc5cc(O)cc(c5)[C@H](NC3=O)C(=O)N[C@H]4C(=O)N[C@H]3C(=O)N[C@@H]2C(=O)N[C@@H](C(=O)O)c2cc(O)cc(O[C@H]4O[C@H](CO)[C@@H](O)[C@H](O)[C@@H]4O)c2-c2cc3ccc2O)O[C@H](CO)[C@@H](O)[C@@H]1O
inconclusive: AC50 [4] 11.8 µM [cytotoxic]
inactive: outcome [1] | outcome [2] | outcome [3] | outcome [5] | outcome [6] | outcome [7]

C[C@]12C=CC(=O)C=C1CC[C@@H]1[C@@H]2[C@@H](O)C[C@@]2(C)[C@H]1CC[C@]2(O)C(=O)CO
inconclusive: fluorescence slope change [13] 31.1% | AC50 [3] 0.105 µM | AC50 [5] 0.00105 µM [cytotoxic] | AC50 [6] 0.296 µM [cytotoxic] | IC50 [7] 0.00118 µM [cytotoxic]
inactive: outcome [1] | outcome [2] | outcome [4]

CNC(=O)c1c(-c2ccc(F)cc2)oc2cc(N(CCO)S(C)(=O)=O)c(C3CC3)cc12
inactive: outcome [1]
inconclusive: AC50 [2] 20.9 µM [cytotoxic] | AC50 [3] 20.9 µM [cytotoxic] | AC50 [4] 6.61 µM | AC50 [5] 2.09 µM | AC50 [6] 20.9 µM [cytotoxic] | IC50 [7] 0.00118 µM

Nc1ncnc2c1ncn2[C@@H]1O[C@H](CO)C[C@H]1O
inconclusive: AC50 [1] 37.2 µM [cytotoxic] | AC50 [4] 16.6 µM [cytotoxic] | AC50 [5] 0.833 µM [cytotoxic] | AC50 [6] 0.00105 µM
inactive: outcome [2] | outcome [3] | outcome [8] | outcome [7]

NCC(=O)Nc1ccc(-n2nc(C(F)(F)F)cc2-c2ccc3c(ccc4ccccc43)c2)cc1
inconclusive: AC50 [2] 29.6 µM [cytotoxic] | AC50 [4] 33.2 µM [cytotoxic] | AC50 [5] 29.5 µM [cytotoxic] | IC50 [7] 29.5 µM [cytotoxic]
active: AC50 [1] 23.5 µM | AC50 [3] 20.9 µM | AC50 [6] 20.9 µM | AC50 [8] 20.9 µM

CCOC(=O)c1ccc(OC(=O)CCCCCN=C(N)N)cc1
inactive: outcome [1] | outcome [2] | outcome [3] | outcome [4] | outcome [6] | outcome [7]
inconclusive: AC50 [5] 0.132 µM [cytotoxic]

COc1nccc(-c2c(-c3ccc(F)cc3)ncn2C2CCC(O)CC2)n1 (centres undefined)
inactive: outcome [1] | outcome [2] | outcome [3] | outcome [8]
inconclusive: AC50 [4] 0.00148 µM [cytotoxic] | AC50 [5] 0.00118 µM

O=C1C(c2c(O)[nH]c3ccccc23)=Nc2ccccc21
active: AC50 [3] 13.2 µM
inactive: outcome [6] | outcome [8] | outcome [7]
inconclusive: AC50 [1] 16.6 µM [cytotoxic] | AC50 [2] 23.5 µM [cytotoxic] | AC50 [4] 10.5 µM [cytotoxic] | AC50 [5] 23.5 µM [cytotoxic]

O=C(Nc1nc2ccccc2n1CCN1CCOCC1)c1cccc([N+](=O)[O-])c1
active: AC50 [3] 10.5 µM
inconclusive: AC50 [1] 9.34 µM [cytotoxic] | AC50 [2] 13.2 µM [cytotoxic] | AC50 [4] 3.32 µM [cytotoxic] | AC50 [5] 11.8 µM [cytotoxic] | AC50 [6] 11.8 µM [cytotoxic] | AC50 [8] 10.5 µM [cytotoxic]

C[C@H]1C[C@@H]2[C@H]([C@@H](O)C[C@@]3(C)[C@H]2CC[C@]3(O)C(=O)CO)[C@@]2(C)C=CC(=O)C=C12
inactive: outcome [1] | outcome [4] | outcome [5]
inconclusive: AC50 [2] 33.2 µM [cytotoxic] | AC50 [3] 0.0332 µM | AC50 [6] 0.0105 µM
active: fluorescence slope change [13] 127%

O=C1c2ccccc2-c2n[nH]c3cccc1c23
inactive: outcome [2] | outcome [6]
inconclusive: AC50 [1] 16.6 µM [cytotoxic] | AC50 [3] 2.64 µM [cytotoxic] | AC50 [4] 23.5 µM [cytotoxic] | AC50 [5] 13.2 µM [cytotoxic] | AC50 [8] 16.6 µM [cytotoxic] | IC50 [7] 20.9 µM

CC(C)(Sc1ccc(CCN(CCCCC2CCCCC2)C(=O)NC2CCCCC2)cc1)C(=O)O
inconclusive: AC50 [1] 37.2 µM [cytotoxic] | AC50 [2] 10.5 µM [cytotoxic] | AC50 [3] 26.4 µM [cytotoxic] | AC50 [4] 0.0166 µM | AC50 [5] 7.42 µM [cytotoxic] | AC50 [8] 23.5 µM [cytotoxic]

CC(C)(C)NC(=O)Nc1cccc(Nc2ncc(F)c(NC(C)(C)CO)n2)c1
inconclusive: AC50 [1] 7.42 µM [cytotoxic] | AC50 [2] 18.7 µM [cytotoxic] | AC50 [3] 2.35 µM [cytotoxic] | AC50 [8] 11.8 µM [cytotoxic] | IC50 [7] 3.32 µM [cytotoxic]
inactive: outcome [4]
active: AC50 [5] 4.68 µM

Cc1cc(O)c2c(c1)C(=O)c1cc(O)cc(O)c1C2=O
inactive: outcome [2] | outcome [4]
inconclusive: AC50 [1] 0.00148 µM [cytotoxic] | AC50 [3] 16.6 µM [cytotoxic] | AC50 [5] 23.5 µM [cytotoxic] | AC50 [8] 18.6 µM [cytotoxic] | IC50 [7] 16.6 µM [cytotoxic]

Oc1ccc(-c2nc(-c3ccc(F)cc3)c(-c3ccncc3)[nH]2)cc1
inconclusive: AC50 [1] 33.2 µM [cytotoxic] | AC50 [4] 18.6 µM [cytotoxic] | AC50 [5] 16.6 µM [cytotoxic] | AC50 [8] 23.5 µM [cytotoxic]
active: AC50 [2] 5.9 µM | AC50 [3] 23.5 µM
inactive: outcome [7]

COC(=O)[C@H](Cc1ccccc1)NC(=O)[C@@H](N)CC(=O)O
inconclusive: AC50 [4] 20.9 µM | AC50 [5] 6.61 µM | IC50 [7] 0.00132 µM
inactive: outcome [1] | outcome [2] | outcome [3] | outcome [8]

CCOC(=O)C(C)(C)Oc1ccc(Cl)cc1
inconclusive: inhibition [9] 24.7% and 2.25% | aggregation (% of control) [10] 110% and 113% | SMN2/SMN1 luciferase ratio [12] 1 and 1.01 | AC50 [3] 29.6 µM [cytotoxic]
inactive: outcome [1] | outcome [2] | outcome [4] | outcome [5] | outcome [7]

CC(=O)NC(C)c1ccc(Oc2ccc(OC(C)C)cc2)cc1 (centres undefined)
inconclusive: AC50 [1] 27 µM [cytotoxic] | AC50 [2] 0.0132 µM [cytotoxic] | AC50 [3] 8.33 µM [cytotoxic] | AC50 [4] 21.5 µM [cytotoxic] | AC50 [5] 76.2 µM [cytotoxic] | AC50 [8] 5.39 µM [cytotoxic] | IC50 [7] 21.5 µM [cytotoxic]
